Measured values reported in PubChem BioAssay AID220 (DTP/NCI, 2004).
The list does not hold the whole screen: it is rich in T/C values a quarter to a half above the control, in often repeated tests (any T/C) and in doses without a T/C. Further doses and runs are listed elsewhere. T/C gives the treated animals as a percentage of the vehicle group. Schedule codes are those of the source, taken here to give the interval after Q, in days (D) or hours (H), and the number of doses after X. Some T/C values are followed by the survivors on the day toxicity was checked, most often the fifth; without a count, all were alive then. Some entries give survivors of the animals treated and no T/C: the source holds a T/C of zero for them, seemingly a mark for toxic or unscored doses. Survivors were counted at the toxicity check, usually on the fifth day, unless a day is given; later deaths do not show. Some entries hold several experiments; their values stand side by side, smallest first.

System: CD8F1 mice, subcutaneous mammary adenocarcinoma, T/C%
Assay: NCI In Vivo Anticancer Drug Screen. Data for tumor model Mammary Adenocarcinoma CD8F1 (subcutaneous) in CD8F1
Conditions: higher T/C = larger tumour
Method in brief: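 Tumor-bearing mice, transplantable model; readout survival or tumor size; value = treated (T) / vehicle control (C).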

`O=C/C(Cl)=C(/Cl)C(=O)O` was tested, and the T/C (T/C endpoint: median tumor weight (est.), dose: 20.0 mg/kg/injection, schedule: Q07DX005 (ip), vehicle: saline with Tween-80, evaluated on day 30) was 142 % of control [9 of 10 alive on day 30], the survivor count (T/C endpoint: median tumor weight (est.), dose: 40.0 mg/kg/injection, schedule: Q07DX005 (ip), vehicle: saline with Tween-80) was 2 of 10 on day 30 and the survivor count (T/C endpoint: median tumor weight (est.), dose: 80.0 mg/kg/injection, schedule: Q07DX005 (ip), vehicle: saline with Tween-80) was 0 of 10 on day 30.

In the case of `CCCCNC(C)[C@]1(O)Cc2c(O)c3c(c(O)c2[C@@H](OC2CC(N)C(O)C(C)O2)C1)C(=O)c1c(OC)cccc1C3=O` (some centres undefined), the T/C (T/C endpoint: median tumor weight (est.), dose: 1.78 mg/kg/injection, schedule: Q07DX005 (ip), vehicle: water, evaluated on day 30) is reported as 141 % of control and the survivor count (T/C endpoint: median tumor weight (est.), dose: 9.0 mg/kg/injection, schedule: Q07DX005 (ip), vehicle: water) is reported as 5 of 10.

In the case of `O=NN(CCCl)C(=O)NC1OC(CO)C(O)C(O)C1O` (centres undefined), the survivor count (T/C endpoint: median tumor weight (est.), dose: 20.0 mg/kg/injection, schedule: Q07DX005 (ip), vehicle: saline) is reported as 4 of 10 on day 30 and the survivor count (T/C endpoint: median tumor weight (est.), dose: 40.0 mg/kg/injection, schedule: Q07DX005 (ip), vehicle: saline) is reported as 0 of 10 on day 30.

For `OC1CCCC2CCCNC12` (centres undefined), the survivor count (T/C endpoint: median tumor weight (est.), dose: 100.0 mg/kg/injection, schedule: Q07DX005 (ip), vehicle: saline with Tween-80) was 4 of 10.

In the case of `COc1cc(OC)c(NC(=O)ON2C(=O)c3ccccc3C2=O)cc1Cl`, the T/C (T/C endpoint: median tumor weight change, dose: 250.0 mg/kg/injection, schedule: Q01DX001 (ip), vehicle: saline with Tween-80, evaluated on day 25) is reported as 148 % of control.

With `N=C(N)SCc1c2ccccc2c(CSC(=N)N)c2ccccc12` the T/C (T/C endpoint: median tumor weight (est.), dose: 100.0 mg/kg/injection, schedule: Q07DX005 (ip), vehicle: saline, evaluated on day 30) was 135 % of control and the T/C (T/C endpoint: median tumor weight change, dose: 50.0 mg/kg/injection, schedule: Q01DX001 (ip), vehicle: suspension in saline, evaluated on day 30) was 139 % of control.

`Cc1cn(C2CC(F)C(CO)O2)c(=O)[nH]c1=O` (centres undefined) was tested, and the survivor count (T/C endpoint: median tumor weight change, dose: 2000.0 mg/kg/injection, schedule: Q01DX001 (ip), vehicle: suspension in saline) was 6 of 10 on day 29.

`CS(=O)(=O)[O-].CS(=O)(=O)[O-].NC1CCCCC1N.[Pt+4]` (centres undefined) was tested, and the survivor count (T/C endpoint: median tumor weight (est.), dose: 2.5 mg/kg/injection, schedule: Q07DX005 (ip), vehicle: dextrose) was 5 of 10 on day 30, the survivor count (T/C endpoint: median tumor weight (est.), dose: 5.0 mg/kg/injection, schedule: Q07DX005 (ip), vehicle: dextrose) was 0 of 10 on day 30 and the survivor count (T/C endpoint: median tumor weight (est.), dose: 10.0 mg/kg/injection, schedule: Q07DX005 (ip), vehicle: dextrose) was 0 of 10 on day 30 and 1 of 10 on day 30.

With `C=C1C(=O)C23[C@H](O)C1CC[C@H]2[C@]12COC3(O)[C@@H](O)[C@@H]1C(C)(C)CC[C@@H]2O` the survivor count (T/C endpoint: median tumor weight (est.), dose: 35.0 mg/kg/injection, schedule: Q07DX005 (ip), vehicle: Klucel (hydroxypropylcellulose) (HPC)) was 5 of 10 on day 30, the survivor count (T/C endpoint: median tumor weight (est.), dose: 70.0 mg/kg/injection, schedule: Q07DX005 (ip), vehicle: Klucel (hydroxypropylcellulose) (HPC)) was 0 of 10 on day 30 and the survivor count (T/C endpoint: median tumor weight change, dose: 62.5 mg/kg/injection, schedule: Q01DX001 (ip), vehicle: saline with Tween-80) was 0 of 10 on day 30. For the same molecule, the survivor count (T/C endpoint: median tumor weight change, dose: 125.0 mg/kg/injection, schedule: Q01DX001 (ip), vehicle: saline with Tween-80) was 0 of 10 on day 30.

For `O=C(O)C1CC1.[Ag]`, the survivor count (T/C endpoint: median tumor weight (est.), dose: 25.0 mg/kg/injection, schedule: Q07DX005 (ip), vehicle: distilled water + Tween-80) was 1 of 10 on day 30, the survivor count (T/C endpoint: median tumor weight (est.), dose: 50.0 mg/kg/injection, schedule: Q07DX005 (ip), vehicle: distilled water + Tween-80) was 0 of 10 on day 30 and the survivor count (T/C endpoint: median tumor weight (est.), dose: 100.0 mg/kg/injection, schedule: Q07DX005 (ip), vehicle: distilled water + Tween-80) was 0 of 10 on day 30. For the same molecule, the survivor count (T/C endpoint: median tumor weight (est.), dose: 200.0 mg/kg/injection, schedule: Q07DX005 (ip), vehicle: distilled water + Tween-80) was 0 of 10 on day 30.

With `CC[C@@]1(O)C(=O)OCc2c1cc1n(c2=O)Cc2cc3ccccc3nc2-1` the T/C (T/C endpoint: median tumor weight change, dose: 1.5 mg/kg/injection, schedule: Q01DX001 (ip), vehicle: saline with Tween-80, evaluated on day 31) was 137 % of control.
